Assay results taken from publication PMC5667882.
Results are given in words; binding and its absence hold for the method and conditions named. Binding seen in cells or lysates may run through a third protein. Some results given as binding are weak or reduced against the parent protein; the word gives no strength. For some of these results: Sequences can lack the tags named with a protein.

Sequences of proteins named here, by UniProt entry; tags and fusion partners are left off.
UniProt Q62053: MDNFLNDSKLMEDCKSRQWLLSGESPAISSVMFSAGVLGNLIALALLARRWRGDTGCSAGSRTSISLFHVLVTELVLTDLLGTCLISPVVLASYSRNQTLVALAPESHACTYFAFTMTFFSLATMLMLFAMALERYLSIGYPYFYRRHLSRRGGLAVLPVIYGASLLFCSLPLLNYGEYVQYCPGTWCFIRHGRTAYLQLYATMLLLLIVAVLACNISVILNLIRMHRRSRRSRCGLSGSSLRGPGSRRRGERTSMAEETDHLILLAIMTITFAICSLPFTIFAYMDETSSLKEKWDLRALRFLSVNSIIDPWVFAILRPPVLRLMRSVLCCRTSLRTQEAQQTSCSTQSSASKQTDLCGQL
UniProt P97926: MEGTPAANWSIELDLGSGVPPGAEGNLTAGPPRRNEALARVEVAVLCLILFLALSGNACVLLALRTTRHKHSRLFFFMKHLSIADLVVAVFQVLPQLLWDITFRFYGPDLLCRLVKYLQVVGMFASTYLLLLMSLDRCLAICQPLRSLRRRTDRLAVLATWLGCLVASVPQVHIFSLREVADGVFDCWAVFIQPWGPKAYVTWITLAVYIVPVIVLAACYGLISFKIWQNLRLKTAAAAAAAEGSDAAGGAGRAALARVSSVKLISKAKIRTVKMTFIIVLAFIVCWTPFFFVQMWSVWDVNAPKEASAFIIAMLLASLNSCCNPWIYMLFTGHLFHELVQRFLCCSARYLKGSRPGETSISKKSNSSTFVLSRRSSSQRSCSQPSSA

Experiments:
[1] = biological target: T1, CTR-fused YFP (CTR-YFP) (mouse (ORF amplified from OV3121 cells)) (UniProt Q60755); experiment: FRET or BRET; FRET by confocal laser microscopy in living HEK293MSR cells transfected with 1 ug of each CFP- and YFP-fusion vector, imaged the following day
T1 sequence: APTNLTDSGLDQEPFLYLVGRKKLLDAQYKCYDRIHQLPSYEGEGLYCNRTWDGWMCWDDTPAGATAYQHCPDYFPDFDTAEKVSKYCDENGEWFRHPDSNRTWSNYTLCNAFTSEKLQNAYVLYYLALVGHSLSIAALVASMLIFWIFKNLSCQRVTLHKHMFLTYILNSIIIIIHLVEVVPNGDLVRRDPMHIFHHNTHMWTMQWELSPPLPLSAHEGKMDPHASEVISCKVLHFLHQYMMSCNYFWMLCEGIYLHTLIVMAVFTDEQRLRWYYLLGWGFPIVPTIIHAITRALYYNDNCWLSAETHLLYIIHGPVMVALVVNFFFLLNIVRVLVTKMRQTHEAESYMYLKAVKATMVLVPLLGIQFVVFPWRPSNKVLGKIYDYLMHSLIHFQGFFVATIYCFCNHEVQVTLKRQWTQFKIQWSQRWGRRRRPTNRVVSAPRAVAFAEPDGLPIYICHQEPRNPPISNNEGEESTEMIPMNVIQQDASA

[2] = biological target: T2, calcitonin (CT) receptor (CTR) (mouse (endogenous in OV3121)) (UniProt Q60755); experiment: co-IP; 30 ug OV3121 membrane proteins co-immunoprecipitated with 1 ug anti-EP2 or anti-CTR antibody, Western blotting with anti-CTR or anti-EP2 antibody, respectively; sample without Co-IP as negative control
T2 sequence: T1 sequence

[3] = biological target: prostaglandin E2 (PGE2) receptor 2 (EP2) (mouse (endogenous in OV3121)) (UniProt Q62053); experiment: as above
[4] = biological target: EP2-fused CFP (EP2-CFP) (mouse (ORF amplified from OV3121 cells)) (UniProt Q62053); experiment: FRET or BRET; FRET by confocal laser microscopy in living HEK293MSR cells transfected with 1 ug of each CFP- and YFP-fusion vector, imaged the following day

For “OXTR-fused CFP (OXTR-CFP) (from UniProt P97926 1-388) (receptor)”, the binding [1] was “no binding”.

For “prostaglandin E2 (PGE2) receptor 2 (EP2) (from UniProt Q62053 1-362)”, the binding [2] was “binds”.

B1: calcitonin (CT) receptor (CTR) (receptor, UniProt Q60755 42-533)
chain: T1 sequence
For B1, the binding [3] was “binds”.

B2: CTR-fused YFP (CTR-YFP) (receptor, UniProt Q60755 42-533)
chain: T1 sequence
B2 was tested, and the binding [4] was “binds”.
